# Screen size: about 360,000 compounds; about 10,000 (2.8%) were called active. This list was built around the results that the source calls inconclusive (neither active nor inactive); the mix of calls is not that of the screen. Calls come from the whole dose curve; as a rule, active = well fitted inhibition curve with a large enough effect; inconclusive = small, poorly fitted or top-dose-only effect; inactive = flat fitted curve, though single readings scatter. Where the call is inconclusive, the potency comes from a doubtful curve fit.
# By UniProt entry, the sequences of proteins in these tests, tags left out.
# UniProt P53350, whole entry, looked up: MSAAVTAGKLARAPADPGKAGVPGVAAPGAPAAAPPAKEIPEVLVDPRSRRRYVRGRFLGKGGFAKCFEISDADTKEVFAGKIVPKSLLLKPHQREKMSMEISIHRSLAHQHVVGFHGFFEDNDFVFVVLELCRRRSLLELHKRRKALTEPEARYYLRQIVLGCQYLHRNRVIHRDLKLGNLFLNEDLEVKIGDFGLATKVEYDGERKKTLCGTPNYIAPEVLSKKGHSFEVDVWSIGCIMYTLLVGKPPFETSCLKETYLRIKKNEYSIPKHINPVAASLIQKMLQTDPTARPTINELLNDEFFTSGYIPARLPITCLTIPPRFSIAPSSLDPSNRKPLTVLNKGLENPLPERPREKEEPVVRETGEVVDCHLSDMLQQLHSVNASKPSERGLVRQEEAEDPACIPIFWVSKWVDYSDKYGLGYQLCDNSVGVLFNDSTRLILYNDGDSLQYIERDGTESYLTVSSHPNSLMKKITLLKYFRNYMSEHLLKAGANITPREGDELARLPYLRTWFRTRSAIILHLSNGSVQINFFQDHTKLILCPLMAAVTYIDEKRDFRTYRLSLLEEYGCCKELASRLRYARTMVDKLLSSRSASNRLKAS
# Biological target: Serine/threonine-protein kinase PLK1 (Homo sapiens) (UniProt P53350)
# Assay: qHTS for Inhibitors of PLK1-PDB (polo-like kinase 1 - polo-box domain): Primary Screen; note: nearly all actives have a fitted effect of over 65% in size; for max response, negative = inhibition: series mostly up to about 57 µM
# Details: Plk1 PBD binding of FITC phosphopeptide, fluorescence polarization
# % is set by controls: 0 for no effect and ±100 for the full control effect; potency is the fitted concentration of half-maximal effect.
SMILES,Potency,"max response, negative = inhibition"
O=C(COC(=O)Cc1ccccc1F)Nc1ccc(Cl)cn1,active: 16.8 µM,
CCN(CC)CCN1C(=O)/C(=C\c2ccc(Cl)c([N+](=O)[O-])c2)SC1=Nc1ccc(OC)cc1,,inactive: -13.7%
O=S(=O)(NC(=S)NC1CCCCC1)c1cccs1,"inconclusive: 16.8 µM [inhibitor, partial curve]",
COc1ccc(NCC(O)COc2ccc(C(C)(C)C)cc2)cc1 (configuration not stated),,inactive: 1.05%
Cc1cccc(-n2c(C)cc(C(=S)N3CCOCC3)c2C)c1C,"inconclusive: 29.9 µM [inhibitor, single point]",
COc1ccc(C(=O)Nc2ccccc2C(=O)N2CCOCC2)cc1Br,active: 26.7 µM,
CCOc1ccccc1/C=N/NC(=O)c1nnn(-c2nonc2N)c1CN1CCCCCC1,"inconclusive: 26.7 µM [inhibitor, single point]",
COc1cccc(-n2nc(C#N)c(Cl)cc2=O)c1,"inconclusive: 21.2 µM [inhibitor, partial curve]",
CN(C)CCN(Cc1ccccc1)S(=O)(=O)c1ccc(-c2ccc(=O)[nH]n2)s1,"inconclusive: 18.9 µM [inhibitor, partial curve]",
CC(C)OP(=O)(OC(C)C)C(O)c1ccc(N(C)C)cc1 (configuration not stated),"inconclusive: 23.8 µM [inhibitor, partial curve]",
CCN(C(=O)COC(=O)CCc1ccc(OC)cc1)c1c(N)n(Cc2ccccc2)c(=O)[nH]c1=O,,inactive: 2.7%
COc1ccc(NC(=O)NCCc2cccc(Cl)c2)cc1OC,"inconclusive: 23.8 µM [inhibitor, partial curve]",
Oc1cccc2cc3cccc(O)c3c(O)c12,,inconclusive: -32.4% [inhibitor]
Cc1ccc(CNC(=O)CSCc2cccc(F)c2)cc1,active: 21.2 µM,
Cc1ccc(C)c(OCCCNC2CCCC2)c1C,,inactive: -15.1%
CSc1cccc(NC(=O)CN(C)S(=O)(=O)c2ccc(F)cc2)c1,"inconclusive: 29.9 µM [inhibitor, single point]",
CCN(c1ccccc1)S(=O)(=O)c1ccc(C(=O)Nc2nnc(-c3ccco3)o2)cc1,"inconclusive: 9.47 µM [inhibitor, partial curve]",
O=C(CCCOc1ccccc1)NC(=S)Nc1ccccc1,"inconclusive: 26.7 µM [inhibitor, single point]",
CCCn1c(SCC(=O)NC2CCCCC2)nnc1-c1ccncc1,active: 23.8 µM,
O=[N+]([O-])c1ccc(NCCNc2ccc([N+](=O)[O-])cc2)cc1,,inactive: -2.96%
CC(=O)c1cc(O)c2ccccc2c1O,active: 5.32 µM,
COc1cc(/C=C2/C(=O)ON=C2C)ccc1OCc1cccc(F)c1,active: 1.06 µM,
O=C(CSc1nc2cc(C(=O)O)ccc2c(=O)n1-c1ccc(F)cc1)Nc1ccc(F)c(F)c1F,,inconclusive: -33.3% [inhibitor]
CC(C)CCNC(=O)NC(=O)COC(=O)/C=C/c1cc(Br)ccc1F,active: 15 µM,

# Gathered by group: the entries above containing bromine
SMILES,Potency,"max response, negative = inhibition"
COc1ccc(C(=O)Nc2ccccc2C(=O)N2CCOCC2)cc1Br,active: 26.7 µM,
CC(C)CCNC(=O)NC(=O)COC(=O)/C=C/c1cc(Br)ccc1F,active: 15 µM,

# The listing continues.

SMILES,Potency,"max response, negative = inhibition"
CCOCC(=O)Nc1nnc(COCC)s1,"inconclusive: 29.9 µM [inhibitor, single point]",
CSc1nc(N2CCN(c3ccccc3)CC2)cc(N2CCN(c3ccccc3)CC2)n1,,inconclusive: -35.3% [inhibitor]
CCC(=O)N(Cc1cc2cc(OC)ccc2[nH]c1=O)c1ccccc1C,"inconclusive: 26.7 µM [inhibitor, partial curve]",
Cc1ccc(SCc2[nH]nc3c2C(c2ccco2)C(C#N)=C(N)O3)cc1 (configuration not stated),active: 9.47 µM,
O=C1CN(S(=O)(=O)c2cccc(C(=O)O)c2)c2ccccc2N1,,inactive: -17.6%
COc1cccc(C=Nc2ccccc2C#N)c1O,"inconclusive: 29.9 µM [inhibitor, single point]",
CCOC(=O)CSc1nc2nc(Cl)c(Cl)nc2[nH]1,"inconclusive: 26.7 µM [inhibitor, partial curve]",
Cc1ccn2cc(-c3cccc(NC(=O)C(C)C)c3)nc2c1,active: 21.2 µM,
O=C(Cc1ccccc1)N/N=C/c1ccc(OCC(=O)Nc2ccccc2)cc1,"inconclusive: 37.7 µM [inhibitor, single point]",
CC(C)c1nnc(NC(=O)C2CCCO2)s1 (configuration not stated),"inconclusive: 26.7 µM [inhibitor, partial curve]",
COc1cc(C)cc2oc(=O)c(CC(=O)N3CCN(C(=O)C4COc5ccccc5O4)CC3)c(C)c12 (configuration not stated),"inconclusive: 13.4 µM [inhibitor, partial curve]",
N#Cc1ccccc1OCC(=O)N1CCN(C(=O)c2ccco2)CC1,"inconclusive: 23.8 µM [inhibitor, single point]",
CC(=O)Nc1ccc(Nc2nc3ccccc3nc2NS(=O)(=O)c2ccc(Cl)c([N+](=O)[O-])c2)cc1,"inconclusive: 21.2 µM [inhibitor, single point]",
CC(C)S(=O)(=O)c1cnc(N2CCOCC2)nc1N,,inactive: -10%
CC(=O)NS(=O)(=O)c1ccc(NC(=O)CSc2ccc(C)cc2)cc1,"inconclusive: 26.7 µM [inhibitor, partial curve]",
COc1ccccc1CN(CC(=O)NCC1CCCO1)C(=O)CNS(=O)(=O)c1ccc(C)cc1 (configuration not stated),active: 29.9 µM,
CCc1ccc(CCN2C(=O)c3ccccc3C2=O)nc1,,inactive: -3.2%
Cc1cccc(S(=O)(=O)Nc2nc3ccccc3nc2Nc2ccc3c(c2)OCO3)c1,"inconclusive: 16.8 µM [inhibitor, partial curve]",
NC(=S)c1cc2cc(Br)ccc2oc1=O,"inconclusive: 26.7 µM [inhibitor, single point]",
COc1ccc(C(=NN)c2ccc(OC)cc2)cc1,"inconclusive: 33.6 µM [inhibitor, single point]",
COc1ccc(OC)c(NC(=O)/C=C/c2ccc(S(=O)(=O)N3CCOCC3)cc2)c1,,inactive: -14.2%
Cc1cccc(-n2c(C)cc(C=C3C(=O)c4ccccc4C3=O)c2C)c1,"inconclusive: 23.8 µM [inhibitor, single point]",
O=C(CN1C(=O)NC(c2ccccc2)(c2ccccc2)C1=O)N1CCOCC1,,inactive: 3.99%
CCn1c2ccc(F)cc2c2nnc(SCCN3CCOCC3)nc21,"inconclusive: 21.2 µM [inhibitor, single point]",

SMILES,Potency,"max response, negative = inhibition"
Cc1c(Cl)cnc(NC(=O)COC(=O)[C@@H](NC(=O)c2ccco2)C(C)C)c1Cl,"inconclusive: 26.7 µM [inhibitor, single point]",
Cc1ccc(/C=C(\C#N)C(=O)Nc2ccccn2)o1,"inconclusive: 29.9 µM [inhibitor, single point]",
Cn1ccc2c(N3c4ccccc4CCc4ccccc43)cc3c(c21)C1CCC3C1 (configuration not stated),"inconclusive: 26.7 µM [inhibitor, partial curve]",
Cc1cc(OCc2nnc(SC(C)C(=O)O)n2Cc2ccccc2)ccc1Cl (configuration not stated),"inconclusive: 26.7 µM [inhibitor, single point]",
CC(=O)c1cccc(CN2CCCC(CCC(=O)NCc3ccc(C)o3)C2)c1 (configuration not stated),"inconclusive: 16.8 µM [inhibitor, partial curve]",
Cc1ccc(C(=O)OCc2nnc(-c3ccccc3)o2)o1,"inconclusive: 26.7 µM [inhibitor, partial curve]",
S=C(NN=C(C1CC1)C1CC1)Nc1ccccc1,,inconclusive: -31.1% [inhibitor]
CCOc1ccc(-c2csc(NC(=O)c3ccco3)n2)cc1,,inactive: -5.7%
Cn1ccnc1SCC(=O)c1cccc(Br)c1,"inconclusive: 23.8 µM [inhibitor, partial curve]",
COc1ccc(NC(=O)COC(=O)CCC(=O)c2cccs2)cc1OC,,inactive: 2.14%
CSCC[C@H](NC(=O)N1C[C@H]2C[C@@H](C1)c1cccc(=O)n1C2)C(=O)Nc1ccc(NC(C)=O)cc1,,inactive: -22.8%
CC(=O)N1c2ccc(S(=O)(=O)NCCC(=O)NCc3ccc(N(C)C)cc3)cc2CC1C (configuration not stated),active: 10.6 µM,
CCOC(=O)c1cc2c(=O)n3ccccc3nc2n(Cc2ccco2)c1=NC(=O)c1ccccc1OCC,,inactive: -7.62%
Nc1nnc(SCCCC(=O)c2ccccc2)s1,,inactive: -20.9%
O=C(/C=C/c1cccc([N+](=O)[O-])c1)NCC1CCCO1 (configuration not stated),"inconclusive: 21.2 µM [inhibitor, partial curve]",
Cc1cccc(/C=N/NC(=O)c2cc3c(s2)-c2ccccc2CC3)c1,active: 21.2 µM,
COc1ccc(OC)c(/C=C2\SC(=S)N(NS(=O)(=O)c3ccccc3)C2=O)c1,"inconclusive: 33.6 µM [inhibitor, single point]",
O=C(CC1Oc2ccccc2NC1=O)NCCc1ccccc1 (configuration not stated),"inconclusive: 13.4 µM [inhibitor, single point]",
[O-][n+]1cccc2c(Br)cc(Br)c(O)c21,"inconclusive: 37.7 µM [inhibitor, single point]",
N/C(=N\OC(=O)c1ccc2c(c1)OCO2)c1ccc([N+](=O)[O-])cc1,"inconclusive: 37.7 µM [inhibitor, partial curve]",
COC(=O)C1=C(C)NC(=O)NC1c1ccc(-c2ccccc2Cl)o1 (configuration not stated),active: 18.9 µM,
N#C/C(=C\c1ccc(-c2ccccc2[N+](=O)[O-])o1)C(=O)Nc1nc(-c2cccs2)cs1,"inconclusive: 16.8 µM [inhibitor, partial curve]",
CCOC(=O)C1(C(N)=O)OC1(c1ccc(Cl)cc1)c1ccccc1Cl (configuration not stated),,inactive: -4.78%
Cc1ccc(C(=O)NC(=S)Nc2ccc(-c3ccc(CO)o3)cc2)cc1,"inconclusive: 29.9 µM [inhibitor, partial curve]",

# — PubChem BioAssay AID720504 (National Center for Advancing Translational Sciences (NCATS), 2013)
